Earlier results on 1 compound are cited in patent US8591947B2, “Dual controlled release dosage form” (Osmotica Kereskedelmi és Szolgáltató KFT, priority 2001, dated 2013).

For `CN1C(=O)C(O)N=C(c2ccccc2)c2cc(Cl)ccc21` (stereo not shown) [temazepan], the “Solubility of component in water (U.S.P. term)” value is “very slightly soluble”.
